In the supplement of paper PMC5355238:
“And” between values parts separate entries of the source, which are not always exact repeats. Equal entries are not always repeated. Structures can show the parent of a compound that is named as a salt. The list shows a part of the results. Most entries show no effect beyond the scatter of the controls.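 Reh is a human leukemia cell line; the read-out is the median γH2AX antibody signal in S-phase cells by flow cytometry, with the score counting standard deviations from the median difference of each paired set of plates. Scores above 2.5 were called candidate hits, while scores below -2 mark compounds that lowered the MK1775-induced damage.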

System: Reh
Assay: Z' of S-phase gammaH2AX difference (drug + MK1775 minus drug alone) (Z-score); higher = stronger synergistic S-phase DNA damage with MK1775
Conditions: MK1775 concentration 400 nM; first compound 10 µM; 4 h

Structure (SMILES)	Z' of S-phase gammaH2AX difference (Z-score)
CC#CCOC(=O)c1c(C)nc2sc3c(c2c1N)CCC(O)C3 (centres undefined) + C=CCn1c(=O)c2cnc(Nc3ccc(N4CCN(C)CC4)cc3)nc2n1-c1cccc(C(C)(C)O)n1 [MK1775]	inactive: -1.81
Cn1c(=O)c2[nH]c(-c3ccc(S(=O)(=O)O)cc3)nc2n(C)c1=O [8-(p-Sulfophenyl)theophylline] + C=CCn1c(=O)c2cnc(Nc3ccc(N4CCN(C)CC4)cc3)nc2n1-c1cccc(C(C)(C)O)n1 [MK1775]	inactive: -0.381
C[C@@H]1O[C@@H]1P(=O)(O)O [Phosphomycin disodium] + C=CCn1c(=O)c2cnc(Nc3ccc(N4CCN(C)CC4)cc3)nc2n1-c1cccc(C(C)(C)O)n1 [MK1775]	inactive: -0.228
C[C@]12C=CC(=O)C=C1CC[C@@H]1C2=CC[C@]2(C)[C@@H](C(=O)CN3CCN(c4cc(N5CCCC5)nc(N5CCCC5)n4)CC3)CC[C@@H]12 + C=CCn1c(=O)c2cnc(Nc3ccc(N4CCN(C)CC4)cc3)nc2n1-c1cccc(C(C)(C)O)n1 [MK1775]	inactive: 0.367
NC(=O)c1cc[n+](CC2=C(C(=O)O)N3C(=O)[C@@H](NC(=O)C(c4ccccc4)S(=O)(=O)[O-])[C@H]3SC2)cc1 (some centres undefined) [Cefsulodin sodium salt hydrate] + C=CCn1c(=O)c2cnc(Nc3ccc(N4CCN(C)CC4)cc3)nc2n1-c1cccc(C(C)(C)O)n1 [MK1775]	inactive: 0.518
CCn1cc(C(=O)O)c(=O)c2cc(F)c(N3CCNC(C)C3)c(F)c21 (centres undefined) [Lomefloxacin hydrochloride] + C=CCn1c(=O)c2cnc(Nc3ccc(N4CCN(C)CC4)cc3)nc2n1-c1cccc(C(C)(C)O)n1 [MK1775]	inactive: -1.28
CS(=O)(=O)Nc1ccc([N+](=O)[O-])cc1Oc1ccccc1 [Nimesulide] + C=CCn1c(=O)c2cnc(Nc3ccc(N4CCN(C)CC4)cc3)nc2n1-c1cccc(C(C)(C)O)n1 [MK1775]	inactive: 1.01
O=C(O)C1=CCNCC1 [Isoguvacine hydrochloride] + C=CCn1c(=O)c2cnc(Nc3ccc(N4CCN(C)CC4)cc3)nc2n1-c1cccc(C(C)(C)O)n1 [MK1775]	inactive: -0.211
CCC1=C[C@@H]2CN(C1)Cc1c([nH]c3ccccc13)[C@@](C(=O)OC)(c1cc3c(cc1OC)N(C)[C@H]1[C@@](O)(C(=O)OC)[C@H](OC(C)=O)[C@]4(CC)C=CCN5CC[C@]31[C@@H]54)C2 [Vinorelbine (Navelbine)] + C=CCn1c(=O)c2cnc(Nc3ccc(N4CCN(C)CC4)cc3)nc2n1-c1cccc(C(C)(C)O)n1 [MK1775]	inactive: -0.0954
CO[C@H]1C[C@@H]2CC[C@@H](C)[C@@](O)(O2)C(=O)C(=O)N2CCCC[C@H]2C(=O)O[C@H]([C@H](C)C[C@@H]2CC[C@@H](O)[C@H](OC)C2)CC(=O)[C@H](C)/C=C(\C)[C@@H](O)[C@@H](OC)C(=O)[C@H](C)C[C@H](C)/C=C/C=C/C=C/1C [Rapamycin (Sirolimus)] + C=CCn1c(=O)c2cnc(Nc3ccc(N4CCN(C)CC4)cc3)nc2n1-c1cccc(C(C)(C)O)n1 [MK1775]	inactive: -0.163
Nc1ncnc2c1ncn2C1OC(C(=O)NC2CC2)C(O)C1O (centres undefined) [5'-(N-Cyclopropyl)carboxamidoadenosine] + C=CCn1c(=O)c2cnc(Nc3ccc(N4CCN(C)CC4)cc3)nc2n1-c1cccc(C(C)(C)O)n1 [MK1775]	inactive: 1.23
Oc1ccc(Nc2nc(-c3ccc(Cl)cc3)cs2)cc1 + C=CCn1c(=O)c2cnc(Nc3ccc(N4CCN(C)CC4)cc3)nc2n1-c1cccc(C(C)(C)O)n1 [MK1775]	inactive: -0.0466
CNc1cc(NS(=O)(=O)c2ccc(N)cc2)nc(NC)n1 [Ro 04-6790 dihydrochloride] + C=CCn1c(=O)c2cnc(Nc3ccc(N4CCN(C)CC4)cc3)nc2n1-c1cccc(C(C)(C)O)n1 [MK1775]	inactive: -0.196
CC1=C(C)C(=O)C(CCCCC#CCCCC#CCO)=C(C)C1=O + C=CCn1c(=O)c2cnc(Nc3ccc(N4CCN(C)CC4)cc3)nc2n1-c1cccc(C(C)(C)O)n1 [MK1775]	inactive: 0.204
CC(C)NCC(O)c1ccc(NS(C)(=O)=O)cc1 (centres undefined) [(?)-Sotalol hydrochloride] + C=CCn1c(=O)c2cnc(Nc3ccc(N4CCN(C)CC4)cc3)nc2n1-c1cccc(C(C)(C)O)n1 [MK1775]	inactive: 0.692
CN(C)CCCCSC(=N)N + C=CCn1c(=O)c2cnc(Nc3ccc(N4CCN(C)CC4)cc3)nc2n1-c1cccc(C(C)(C)O)n1 [MK1775]	inactive: 0.349 and inactive: 0.189
CC(=O)N1CCN(c2ccc(OCC3COC(Cn4ccnc4)(c4ccc(Cl)cc4Cl)O3)cc2)CC1 (centres undefined) [Ketoconazole] + C=CCn1c(=O)c2cnc(Nc3ccc(N4CCN(C)CC4)cc3)nc2n1-c1cccc(C(C)(C)O)n1 [MK1775]	inactive: 0.673

Structure (SMILES)	Z' of S-phase gammaH2AX difference (Z-score)
O=c1c(-c2ccc(O)cc2)coc2cc(O)cc(O)c12 [Genistein] + C=CCn1c(=O)c2cnc(Nc3ccc(N4CCN(C)CC4)cc3)nc2n1-c1cccc(C(C)(C)O)n1 [MK1775]	inactive: -0.357
C[C@H](NC(=O)Cc1cc(F)cc(F)c1)C(=O)N[C@@H]1C(=O)N(C)c2ccccc2-c2ccccc21 + C=CCn1c(=O)c2cnc(Nc3ccc(N4CCN(C)CC4)cc3)nc2n1-c1cccc(C(C)(C)O)n1 [MK1775]	inactive: -0.054
COC(=O)[C@H]1[C@H]2C[C@@H]3c4[nH]c5cc(OC)ccc5c4CCN3C[C@H]2C[C@@H](OC(=O)c2cc(OC)c(OC)c(OC)c2)[C@@H]1OC [Reserpine] + C=CCn1c(=O)c2cnc(Nc3ccc(N4CCN(C)CC4)cc3)nc2n1-c1cccc(C(C)(C)O)n1 [MK1775]	inactive: -0.324
O=C(O)CN(CCOCCOCCN(CC(=O)O)CC(=O)O)CC(=O)O + C=CCn1c(=O)c2cnc(Nc3ccc(N4CCN(C)CC4)cc3)nc2n1-c1cccc(C(C)(C)O)n1 [MK1775]	inactive: 1.3
CNC(=C[N+](=O)[O-])NCCSCc1ccc(CN(C)C)o1 [Ranitidine hydrochloride] + C=CCn1c(=O)c2cnc(Nc3ccc(N4CCN(C)CC4)cc3)nc2n1-c1cccc(C(C)(C)O)n1 [MK1775]	inactive: 0.0615
CC(C)C[C@H](NC(=O)[C@@H](O)[C@H](N)Cc1ccccc1)C(=O)O [Ubenimex (Bestatin)] + C=CCn1c(=O)c2cnc(Nc3ccc(N4CCN(C)CC4)cc3)nc2n1-c1cccc(C(C)(C)O)n1 [MK1775]	inactive: 0.27
CC(C)C[C@H](NC(=O)[C@@H](O)[C@H](N)Cc1ccccc1)C(=O)O [Bestatin hydrochloride] + C=CCn1c(=O)c2cnc(Nc3ccc(N4CCN(C)CC4)cc3)nc2n1-c1cccc(C(C)(C)O)n1 [MK1775]	inactive: 0.351
CC(C)C[C@H](NC(=O)CNC(=O)c1cc(Cl)ccc1Cl)B(O)O + C=CCn1c(=O)c2cnc(Nc3ccc(N4CCN(C)CC4)cc3)nc2n1-c1cccc(C(C)(C)O)n1 [MK1775]	inactive: -0.725
O=C(O[C@@H]1Cc2c(O)cc(O)cc2O[C@@H]1c1cc(O)c(O)c(O)c1)c1cc(O)c(O)c(O)c1 [(-)-Epigallocatechin gallate] + C=CCn1c(=O)c2cnc(Nc3ccc(N4CCN(C)CC4)cc3)nc2n1-c1cccc(C(C)(C)O)n1 [MK1775]	inactive: 0.511
CCOc1ccn(-c2ccc(F)cc2)c(=O)c1C(=O)Nc1ccc(Oc2ccnc(N)c2Cl)c(F)c1 + C=CCn1c(=O)c2cnc(Nc3ccc(N4CCN(C)CC4)cc3)nc2n1-c1cccc(C(C)(C)O)n1 [MK1775]	inactive: 0.109
[Cl-].[Li+] [Lithium Chloride] + C=CCn1c(=O)c2cnc(Nc3ccc(N4CCN(C)CC4)cc3)nc2n1-c1cccc(C(C)(C)O)n1 [MK1775]	inactive: -0.0462
CCN(CC)CCNC(=O)c1ccc(NC(C)=O)cc1 [N-Acetylprocainamide hydrochloride] + C=CCn1c(=O)c2cnc(Nc3ccc(N4CCN(C)CC4)cc3)nc2n1-c1cccc(C(C)(C)O)n1 [MK1775]	inactive: -0.194
CCCCCCN(CCCCCC)C(=O)Cc1c(-c2ccc(F)cc2)[nH]c2ccccc12 [N,N-Dihexyl-2-(4-fluorophenyl)indole-3-acetamide] + C=CCn1c(=O)c2cnc(Nc3ccc(N4CCN(C)CC4)cc3)nc2n1-c1cccc(C(C)(C)O)n1 [MK1775]	inactive: 0.828
CC(=O)NNC(=O)N1Cc2ccccc2Oc2ccc(Cl)cc21 + C=CCn1c(=O)c2cnc(Nc3ccc(N4CCN(C)CC4)cc3)nc2n1-c1cccc(C(C)(C)O)n1 [MK1775]	inactive: -0.557
CNC[C@H](O)c1cccc(O)c1 [Phenylephrine hydrochloride] + C=CCn1c(=O)c2cnc(Nc3ccc(N4CCN(C)CC4)cc3)nc2n1-c1cccc(C(C)(C)O)n1 [MK1775]	inactive: -0.0776
Cc1ccccc1/C=C/C1=NCCN1 [Metrazoline oxalate] + C=CCn1c(=O)c2cnc(Nc3ccc(N4CCN(C)CC4)cc3)nc2n1-c1cccc(C(C)(C)O)n1 [MK1775]	inactive: 0.121
COc1ccc(CCN(C)CCc2ccc(OC)c(OC)c2)cc1OC [YS-035 hydrochloride] + C=CCn1c(=O)c2cnc(Nc3ccc(N4CCN(C)CC4)cc3)nc2n1-c1cccc(C(C)(C)O)n1 [MK1775]	inactive: 0.725

Pulled one by one from the list above (three):
Structure (SMILES)	Z' of S-phase gammaH2AX difference (Z-score)
COC(=O)[C@H]1[C@H]2C[C@@H]3c4[nH]c5cc(OC)ccc5c4CCN3C[C@H]2C[C@@H](OC(=O)c2cc(OC)c(OC)c(OC)c2)[C@@H]1OC [Reserpine] + C=CCn1c(=O)c2cnc(Nc3ccc(N4CCN(C)CC4)cc3)nc2n1-c1cccc(C(C)(C)O)n1 [MK1775]	inactive: -0.324
CC(C)NCC(O)c1ccc(NS(C)(=O)=O)cc1 (centres undefined) [(?)-Sotalol hydrochloride] + C=CCn1c(=O)c2cnc(Nc3ccc(N4CCN(C)CC4)cc3)nc2n1-c1cccc(C(C)(C)O)n1 [MK1775]	inactive: 0.692
O=c1c(-c2ccc(O)cc2)coc2cc(O)cc(O)c12 [Genistein] + C=CCn1c(=O)c2cnc(Nc3ccc(N4CCN(C)CC4)cc3)nc2n1-c1cccc(C(C)(C)O)n1 [MK1775]	inactive: -0.357
